This data set relates to Alanine-aminopeptidase. Put plainly: GRAM identification with impregnated bottle brush. The class given is cell-based, Gram-negative bacteria. The following applies: P. aeruginosa, of four (4) strains. The text has this:
According to a representative example, the GRAM identification process uses a substrate based on aminobenzene or a derivative thereof, such as DiMethyl-paraPhenyleneDiamine (DMpPD). In the example which follows, the substrate consists of Alanine-Dimethyl-paraPhenyleneDiamine (AlaDMpPD).
It functions as follows. Enzymatic hydrolysis causes release of the DMpPD group. Next, the DMPD binds with α-naphthol (or a derivative) by oxidative coupling facilitated by an oxidizing agent, potassium ferricyanide (K3Fe(CN)6). This then causes formation of a violet-gray complex.
Another device has been defined, which is even more specific in Gram identification and which can also be used with blood agars of Columbia type. It consists of:
a medium consisting of a blood agar of Columbia type (with or without AlaDMpPD), and
a reaction mixture which impregnates a bottle brush and which is constituted on the basis of α-naphthol, potassium ferricyanide and AlaDMpPD and then dried.
This reaction mixture contained in the bottle brush was further improved by adding a step of drying the bottle brushes, which facilitates their subsequent manipulation.
The exact composition is as follows:
for the agar, presence or absence of AlaDMpPD at 0.075 gram per liter (g/l), and
α-naphthol from 0.01 to 5 g/l, preferably from 0.1 to 1 g/l, and for example 0.5 g/l, […]

For “Alanine-Dimethyl-paraPhenyleneDiamine [AlaDMpPD]”, the “false negatives, number of strains” value was found to be 2.

Values taken from US6340573B1, “Chromogenic substrates for detecting bacterial hydrolases” (Bio Merieux, priority 1998, dated 2002).
